# Data from PMC7906902.
# Chains of the proteins cited; added tags and fusions are not shown.
# UniProt P25963: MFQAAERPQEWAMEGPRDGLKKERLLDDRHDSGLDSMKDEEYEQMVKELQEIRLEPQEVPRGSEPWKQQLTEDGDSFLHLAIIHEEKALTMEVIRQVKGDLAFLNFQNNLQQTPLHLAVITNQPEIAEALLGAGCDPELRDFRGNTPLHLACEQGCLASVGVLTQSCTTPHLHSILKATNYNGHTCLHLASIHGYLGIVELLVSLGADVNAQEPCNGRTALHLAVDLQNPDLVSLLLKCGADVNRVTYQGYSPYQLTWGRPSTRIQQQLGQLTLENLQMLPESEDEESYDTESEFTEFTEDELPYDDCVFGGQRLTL
# Results are given in words; binding and its absence hold for the method and conditions named. In cells and extracts the contact can be indirect. Some binding calls cover weakened binding; strength is not graded here.
# T1: Procollagen lysyl hydroxylase 1 (PLOD1) (human (endogenous in patient-derived GSCs)) (UniProt Q02809)
# T1 sequence: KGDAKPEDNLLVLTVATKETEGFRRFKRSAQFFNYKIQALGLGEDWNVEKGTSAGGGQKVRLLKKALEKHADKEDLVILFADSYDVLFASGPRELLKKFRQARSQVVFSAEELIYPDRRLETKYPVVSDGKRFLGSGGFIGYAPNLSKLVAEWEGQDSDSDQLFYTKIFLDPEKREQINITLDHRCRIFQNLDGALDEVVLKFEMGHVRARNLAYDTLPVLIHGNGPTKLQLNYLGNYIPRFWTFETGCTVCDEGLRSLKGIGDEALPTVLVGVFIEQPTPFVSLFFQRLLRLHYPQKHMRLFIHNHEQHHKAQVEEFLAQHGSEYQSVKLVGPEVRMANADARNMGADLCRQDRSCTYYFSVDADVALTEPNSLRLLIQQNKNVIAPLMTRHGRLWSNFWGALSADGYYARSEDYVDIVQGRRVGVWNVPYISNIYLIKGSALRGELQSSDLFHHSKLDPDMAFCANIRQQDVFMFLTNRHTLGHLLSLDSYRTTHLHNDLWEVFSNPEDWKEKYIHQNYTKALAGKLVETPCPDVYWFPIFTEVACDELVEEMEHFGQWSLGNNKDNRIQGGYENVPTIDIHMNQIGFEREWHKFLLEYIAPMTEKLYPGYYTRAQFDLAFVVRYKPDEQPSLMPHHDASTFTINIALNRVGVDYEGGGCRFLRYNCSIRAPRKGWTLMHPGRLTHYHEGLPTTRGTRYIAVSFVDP
# How the values were obtained:
# [1] = target: T1, Procollagen lysyl hydroxylase 1 (PLOD1) (human (endogenous in patient-derived GSCs)); test: co-IP; total cell lysates in RIPA lysis buffer with proteasome inhibitor; immunoprecipitated at 4 °C for 12 h with a rabbit monoclonal antibody against PLOD1 or a mouse monoclonal antibody against IκBα prebound to protein A-Sepharose 4B beads; isotype antibodies as controls; eluates analysed by western blotting
# [2] = target: IκBα (human (endogenous in patient-derived GSCs)) (UniProt P25963); test: as above
Molecule,binding [1],binding [2]
IκBα (from UniProt P25963 1-317),binds,
"Procollagen lysyl hydroxylase 1 (PLOD1) (enzyme, UniProt Q02809 19-727) KGDAKPEDNLLVLTVATKETEGFRRFKRSAQFFNYKIQALGLGEDWNVEKGTSAGGGQKVRLLKKALEKHADKEDLVILFADSYDVLFASGPRELLKKFRQARSQVVFSAEELIYPDRRLETKYPVVSDGKRFLGSGGFIGYAPNLSKLVAEWEGQDSDSDQLFYTKIFLDPEKREQINITLDHRCRIFQNLDGALDEVVLKFEMGHVRARNLAYDTLPVLIHGNGPTKLQLNYLGNYIPRFWTFETGCTVCDEGLRSLKGIGDEALPTVLVGVFIEQPTPFVSLFFQRLLRLHYPQKHMRLFIHNHEQHHKAQVEEFLAQHGSEYQSVKLVGPEVRMANADARNMGADLCRQDRSCTYYFSVDADVALTEPNSLRLLIQQNKNVIAPLMTRHGRLWSNFWGALSADGYYARSEDYVDIVQGRRVGVWNVPYISNIYLIKGSALRGELQSSDLFHHSKLDPDMAFCANIRQQDVFMFLTNRHTLGHLLSLDSYRTTHLHNDLWEVFSNPEDWKEKYIHQNYTKALAGKLVETPCPDVYWFPIFTEVACDELVEEMEHFGQWSLGNNKDNRIQGGYENVPTIDIHMNQIGFEREWHKFLLEYIAPMTEKLYPGYYTRAQFDLAFVVRYKPDEQPSLMPHHDASTFTINIALNRVGVDYEGGGCRFLRYNCSIRAPRKGWTLMHPGRLTHYHEGLPTTRGTRYIAVSFVDP",,binds
